# The other results are listed elsewhere or left out.
# B1: Thrombomodulin Lectin (Mus musculus) (protein)
# chain: LSALAKLQPTGSQCVEHECFALFQGPATFLDASQACQRLQGHLMTVRSSVAADVISLLLSQSSMDLGPWIGLQLPQGCDDPVHLGPLRGFQWVTGDNHTSYSRWARPNDQTAPLCGPLCVTVSTATEAAPGEPAWEEKPCETETQGFLCEFYFTASCRVDPIPVREDTKEEEGAGEPPVSPTPGSPTGPPSARPVLDEPRVPITQNPCPPLKECPPCAAPDLEGGPSVFIFPPKIKDVLMISLSPMVTCVVVDVSEDDPDVQISWFVNNVEVHTAQTQTHREDYNSTLRVVSALPIQHQDWMSGKAFACAVNNRALPSPIEKTISKPRGPVRAPQVYVLPPPAEEMTKKEFSLTCMITGFLPAEIAVDWTSNGRTEQNYKNTATVLDSDGSYFMYSKLRVQKSTWERGSLFACSVVHEGLHNHLTTKTISRSLGK
# Legend:
# Assay in all cases: glycan array binding signal (z-score within array); higher = stronger binding
# Conditions in all cases: glycan notation: IUPAC condensed, linker removed
# [1] = target: Gal(b1-3)GlcNAc(b1-6)[Gal(b1-3)]GalNAc
# How it was run: (§1)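 The binding signal is a Z-score computed within each array and averaged over linkers. Arrays of the same protein sequence at different concentrations or buffers were also averaged together. Data originate from 3228 arrays in the Consortium for Functional Glycomics database, kept only where the protein sequence was available.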
# [2] = target: Gal(b1-3)GlcNAc6S
# How it was run: as §1
# [3] = target: Gal(b1-3)[Fuc(a1-4)]GlcNAc
# How it was run: as §1
# [4] = target: Gal(b1-3)[Fuc(a1-4)]GlcNAc(b1-2)Man
# How it was run: as §1
# [5] = target: Gal(b1-3)[Fuc(a1-4)]GlcNAc(b1-2)Man(a1-3)[Gal(b1-3)[Fuc(a1-4)]GlcNAc(b1-2)Man(a1-6)]Man(b1-4)GlcNAc(b1-4)[Fuc(a1-6)]GlcNAc
# How it was run: as §1
# [6] = target: Gal(b1-3)[Fuc(a1-4)]GlcNAc(b1-3)Gal(b1-3)[Fuc(a1-4)]GlcNAc
# How it was run: as §1
# [7] = target: Gal(b1-3)[Fuc(a1-4)]GlcNAc(b1-3)Gal(b1-4)[Fuc(a1-3)]GlcNAc
# How it was run: as §1
# [8] = target: Gal(b1-3)[Fuc(a1-4)]GlcNAc(b1-6)GalNAc
# How it was run: as §1
# [9] = target: Gal(b1-3)[GlcNAc(b1-6)]GalNAc
# How it was run: as §1
# [10] = target: Gal(b1-3)[Neu5Ac(a2-6)]GalNAc
# How it was run: as §1
# [11] = target: Gal(b1-3)[Neu5Ac(a2-6)]GlcNAc(b1-4)Gal(b1-4)Glc
# How it was run: as §1
# [12] = target: Gal(b1-3)[Neu5Ac(b2-6)]GalNAc
# How it was run: as §1
# [13] = target: Gal(b1-4)Gal
# How it was run: as §1
# [14] = target: Gal(b1-4)GalNAc(a1-3)[Fuc(a1-2)]Gal(b1-4)GlcNAc
# How it was run: as §1
# [15] = target: Gal(b1-4)GalNAc(b1-3)[Fuc(a1-2)]Gal(b1-4)GlcNAc
# How it was run: as §1
# [16] = target: Gal(b1-4)Glc
# How it was run: as §1
# [17] = target: Gal(b1-4)Glc6S
# How it was run: as §1
# [18] = target: Gal(b1-4)GlcNAc
# How it was run: as §1
# [19] = target: Gal(b1-4)GlcNAc(a1-6)Gal(b1-4)GlcNAc
# How it was run: as §1
# [20] = target: Gal(b1-4)GlcNAc(b1-2)Man
# How it was run: as §1
# [21] = target: Gal(b1-4)GlcNAc(b1-2)Man(a1-3)Man(b1-4)GlcNAc(b1-4)GlcNAc
# How it was run: as §1
# [22] = target: Gal(b1-4)GlcNAc(b1-2)Man(a1-3)[Gal(b1-4)GlcNAc(b1-2)Man(a1-6)]Man(b1-4)GlcNAc(b1-4)GlcNAc
# How it was run: as §1
# [23] = target: Gal(b1-4)GlcNAc(b1-2)Man(a1-3)[Gal(b1-4)GlcNAc(b1-2)Man(a1-6)]Man(b1-4)GlcNAc(b1-4)[Fuc(a1-6)]GlcNAc
# How it was run: as §1
# [24] = target: Gal(b1-4)GlcNAc(b1-2)Man(a1-3)[Gal(b1-4)GlcNAc(b1-2)Man(a1-6)][Gal(b1-4)GlcNAc(b1-4)]Man(b1-4)GlcNAc(b1-4)[Fuc(a1-6)]GlcNAc
# How it was run: as §1
# [25] = target: Gal(b1-4)GlcNAc(b1-2)Man(a1-3)[Gal(b1-4)GlcNAc(b1-2)Man(a1-6)][GlcNAc(b1-4)]Man(b1-4)GlcNAc(b1-4)[Fuc(a1-6)]GlcNAc
# How it was run: as §1
# [26] = target: Gal(b1-4)GlcNAc(b1-2)Man(a1-3)[GlcNAc(b1-2)Man(a1-6)]Man(b1-4)GlcNAc(b1-4)GlcNAc
# How it was run: as §1
# [27] = target: Gal(b1-4)GlcNAc(b1-2)Man(a1-3)[GlcNAc(b1-4)][Gal(b1-4)GlcNAc(b1-2)Man(a1-6)]Man(b1-4)GlcNAc(b1-4)GlcNAc
# How it was run: as §1
# [28] = target: Gal(b1-4)GlcNAc(b1-2)Man(a1-3)[Man(a1-6)]Man(b1-4)GlcNAc(b1-4)GlcNAc
# How it was run: as §1
# [29] = target: Gal(b1-4)GlcNAc(b1-2)Man(a1-6)Man(b1-4)GlcNAc(b1-4)GlcNAc
# How it was run: as §1
# [30] = target: Gal(b1-4)GlcNAc(b1-2)Man(a1-6)[GlcNAc(b1-2)Man(a1-3)]Man(b1-4)GlcNAc(b1-4)GlcNAc
# How it was run: as §1
# [31] = target: Gal(b1-4)GlcNAc(b1-2)Man(a1-6)[Man(a1-3)]Man(b1-4)GlcNAc(b1-4)GlcNAc
# How it was run: as §1
# [32] = target: Gal(b1-4)GlcNAc(b1-2)[Gal(b1-4)GlcNAc(b1-4)]Man(a1-3)[Gal(b1-4)GlcNAc(b1-2)Man(a1-6)]Man(b1-4)GlcNAc(b1-4)GlcNAc
# How it was run: as §1
# [33] = target: Gal(b1-4)GlcNAc(b1-2)[Gal(b1-4)GlcNAc(b1-4)]Man(a1-3)[Gal(b1-4)GlcNAc(b1-2)[Gal(b1-4)GlcNAc(b1-6)]Man(a1-6)]Man(b1-4)GlcNAc(b1-4)GlcNAc
# How it was run: as §1
# [34] = target: Gal(b1-4)GlcNAc(b1-2)[Gal(b1-4)GlcNAc(b1-4)]Man(a1-3)[GlcNAc(b1-4)][Gal(b1-4)GlcNAc(b1-2)Man(a1-6)]Man(b1-4)GlcNAc(b1-4)GlcNAc
# How it was run: as §1
# [35] = target: Gal(b1-4)GlcNAc(b1-2)[Gal(b1-4)GlcNAc(b1-4)]Man(a1-3)[GlcNAc(b1-4)][Gal(b1-4)GlcNAc(b1-2)[Gal(b1-4)GlcNAc(b1-6)]Man(a1-6)]Man(b1-4)GlcNAc(b1-4)GlcNAc
# How it was run: as §1
# [36] = target: Gal(b1-4)GlcNAc(b1-2)[Gal(b1-4)GlcNAc(b1-6)]Man(a1-6)[Gal(b1-4)GlcNAc(b1-2)Man(a1-3)]Man(b1-4)GlcNAc(b1-4)GlcNAc
# How it was run: as §1
# [37] = target: Gal(b1-4)GlcNAc(b1-2)[Gal(b1-4)GlcNAc(b1-6)]Man(a1-6)[Gal(b1-4)GlcNAc(b1-2)Man(a1-3)]Man(b1-4)GlcNAc(b1-4)[Fuc(a1-6)]GlcNAc
# How it was run: as §1
binder,measurement,setting,value
B1,glycan array binding signal (z-score),[1],0.044
same,glycan array binding signal (z-score),[2],-1.01
same,glycan array binding signal (z-score),[3],0.138
same,glycan array binding signal (z-score),[4],0.806
same,glycan array binding signal (z-score),[5],1.04
same,glycan array binding signal (z-score),[6],1.08
same,glycan array binding signal (z-score),[7],-0.275
same,glycan array binding signal (z-score),[8],-0.03
same,glycan array binding signal (z-score),[9],0.434
same,glycan array binding signal (z-score),[10],-0.959
same,glycan array binding signal (z-score),[11],-2.08
same,glycan array binding signal (z-score),[12],-0.837
same,glycan array binding signal (z-score),[13],-0.267
same,glycan array binding signal (z-score),[14],-0.489
same,glycan array binding signal (z-score),[15],-0.082
same,glycan array binding signal (z-score),[16],-0.164
same,glycan array binding signal (z-score),[17],0.801
same,glycan array binding signal (z-score),[18],0.191
same,glycan array binding signal (z-score),[19],-2.05
same,glycan array binding signal (z-score),[20],-1.6
same,glycan array binding signal (z-score),[21],0.338
same,glycan array binding signal (z-score),[22],0.94
same,glycan array binding signal (z-score),[23],0.204
same,glycan array binding signal (z-score),[24],0.267
same,glycan array binding signal (z-score),[25],-0.788
same,glycan array binding signal (z-score),[26],-1.49
same,glycan array binding signal (z-score),[27],0.119
same,glycan array binding signal (z-score),[28],-0.565
same,glycan array binding signal (z-score),[29],-0.184
same,glycan array binding signal (z-score),[30],-0.817
same,glycan array binding signal (z-score),[31],0.659
same,glycan array binding signal (z-score),[32],2.75
same,glycan array binding signal (z-score),[33],-1.05
same,glycan array binding signal (z-score),[34],-0.678
same,glycan array binding signal (z-score),[35],-0.59
same,glycan array binding signal (z-score),[36],1.04
same,glycan array binding signal (z-score),[37],-0.089

# In a second layout: results already given
binder | measurement | setting | value
B1 | glycan array binding signal (z-score) | [23] | 0.204
same | glycan array binding signal (z-score) | [33] | -1.05
